Assay results published in patent publication US20020123042A1.
These are yes or no findings as the source states them, for the method shown. Binding seen in cells or lysates may run through a third protein. Some results given as binding are weak or reduced against the parent protein; the word gives no strength.

By UniProt entry, the sequences of proteins in these tests, tags left out. Where a name states a change or a piece, a line headed by the entry shows the natural chain unless it says otherwise.
UniProt O43684: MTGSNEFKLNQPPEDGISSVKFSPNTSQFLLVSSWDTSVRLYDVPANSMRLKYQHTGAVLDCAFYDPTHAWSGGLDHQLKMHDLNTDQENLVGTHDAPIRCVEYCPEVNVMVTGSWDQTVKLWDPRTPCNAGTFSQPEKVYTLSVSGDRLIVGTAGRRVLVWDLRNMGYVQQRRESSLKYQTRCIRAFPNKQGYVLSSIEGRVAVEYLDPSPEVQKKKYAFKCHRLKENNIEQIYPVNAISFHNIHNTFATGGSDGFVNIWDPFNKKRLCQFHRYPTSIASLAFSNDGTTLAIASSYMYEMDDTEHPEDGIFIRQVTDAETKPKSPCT

Biological target: epitope tagged FLAG-huBUB3 variant protein (plasmid p221-2) (human) (UniProt O43684)
Assay: anti-FLAG co-immunoprecipitation of 35S-labeled in vitro translated proteins, 2 M NaCl washes

B1: huBUB1 lysine-821 to alanine mutant (plasmid p403-1) (enzyme)
chain: MDTPENVLQMLEAHMQSYKGNDPLGEWERYIQWVEENFPENKEYLITLLEHLMKEFLDKKKYHNDPRFISYCLKFAEYNSDLHQFFEFLYNHGIGTLSSPLYIAWAGHLEAQGELQHASAVLQRGIQNQAEPREFLQQQYRLFQTRLTETHLPAQARTSEPLHNVQVLNQMITSKSNPGNNMACISKNQGSELSGVISSACDKESNMERRVITISKSEYSVHSSLASKVDVEQVVMYCKEKLIRGESEFSFEELRAQKYNQRRKHEQWVNEDRHYMKRKEANAFEEQLLKQKMDELHKKLHQVVETSHEDLPASQERSEVNPARMGPSVGSQQELRAPCLPVTYQQTPVNMEKNPREAPPVVPPLANAISAALVSPATSQSIAPPVPLKAQTVTDSMFAVASKDAGCVNKSTHEFKPQSGAEIKEGCETHKVANTSSFHTTPNTSLGMVQATPSKVQPSPTVHTKEALGFIMNMFQAPTLPDISDDKDEWQSLDQNEDAFEAQFQKNVRSSGAWGVNKIISSLSSAFHVFEDGNKENYGLPQPKNKPTGARTFGERSVSRLPSKPKEEVPHAEEFLDDSTVWGIRCNKTLAPSPKSPGDFTSAAQLASTPFHKLPVESVHILEDKENVVAKQCTQATLDSCEENMVVPSRDGKFSPIQEKSPKQALSSHMYSASLLRLSQPAAGGVLTCEAELGVEACRLTDTDAAIAEDPPDAIAGLQAEWMQMSSLGTVDAPNFIVGNPWDDKLIFKLLSGLSKPVSSYPNTFEWQCKLPAIKPKTEFQLGSKLVYVHHLLGEGAFAQVYEATQGDLNDAKNKQKFVLAVQKPANPWEFYIGTQLMERLKPSMQHMFMKFYSAHLFQNGSVLVGELYSYGTLLNAINLYKNTPEKVMPQGLVISFAMRMLYMIEQVHDCEIIHGDIKPDNFILGNGFLEQDDEDDLSAGLALIDLGQSIDMKLFPKGTIFTAKCETSGFQCVEMLSNKPWNYQIDYFGVAATVYCMLFGTYMKVKNEGGECKPEGLFRRLPHLDMWNEFFHVMLNIPDCHHLPSLDLLRQKLKKVFQQHYTNKIRALRNRLIVLLLECKRSRK
binding: binds
